# According to PubChem BioAssay AID2685 (National Center for Advancing Translational Sciences (NCATS), 2010):
# Some of the results follow. Further columns of the screen follow, without active or inactive calls. The list favours compounds with an active or inconclusive main result. Potencies come from curve fits of mixed quality, noted in brackets.
# Assay: qHTS Assay for Lipid Storage Modulators in Drosophila S3 Cells;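 for cell number change: cells counted by Cell Tracker Red CMTPX staining in the red channel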
# Conditions: BODIPY lipid droplet fluorescence, 18-24 h; for cell number change: measured here: cell count max response, cells fed with added oleic acid
# Procedure, shortened: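 Laser-scanning cytometry quantifies lipid droplet accumulation (500–530 nm total intensity; droplet/cell object ratio) in oleic acid-fed (400 uM added) Drosophila S3 cells treated with a concentration series. 20 uM Triacsin C defined 100% inhibition.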
# [1] = measured here: cell number channel AC50, cells fed with added oleic acid
# [2] = measured here: lipid fluorescence (Fed channel) AC50, cells fed with added oleic acid
Compound,cell number change [%],AC50 [1],AC50 [2]
O=C(CSc1ccc(Cl)cc1)NN=C1CCCCCC1,-21.2,"731 nM [falling, full curve, poor fit]","92 nM [falling, full curve, poor fit]"
O=C(Oc1ccccc1)c1c(Cl)cccc1P(=O)(O)O,–,–,"4110 nM [falling, full curve, poor fit]"
O=C1CSC(=S)N1/N=C/c1cccnc1,6.4,"2590 nM [rising, single point]","6510 nM [rising, single point]"
CCCCn1c(N)c(N(CCOC)C(=O)c2ccc(Cl)c(S(=O)(=O)N3CCCCC3)c2)c(=O)[nH]c1=O,-98.2,"29100 nM [falling, single point]",–
Cc1ccccc1OCC(=O)NCC(C)(C)N1CCOCC1,16.5,–,–
CN(C)S(=O)(=O)Oc1ccccc1C(=O)Nc1ccc(F)cc1F,140,"29100 nM [rising, single point]","29100 nM [rising, single point]"
CCOc1cc(/C=C2\C(=N)N3N=C(S(C)(=O)=O)SC3=NC2=O)ccc1OCCOc1cccc(OC)c1,-31.1,"58 nM [falling, full curve, poor fit]","9200 nM [falling, partial curve]"
CCCCC(CC)CNC(=O)CCCCn1c(=O)[nH]c2ccsc2c1=O (stereo unspecified),-22.8,–,"16400 nM [falling, single point]"
CC(C)(C(=O)N[C@H](CO)c1ccccc1)C(=O)N[C@H](CO)c1ccccc1,2.91,–,–
CCOc1ccc2nc3cc(NCc4ccc(OC)cc4)ccc3c(N)c2c1,-93.4,"25900 nM [falling, single point]","16400 nM [falling, partial curve]"
CCOC(=O)C(=O)c1csc(NC(=O)COc2ccc(N(C)S(=O)(=O)c3ccc(F)cc3)cc2)n1,-12.9,–,"6510 nM [rising, single point]"
CC(C)C(=O)N1CCN(c2ccccc2NC(=O)COc2ccc(C3CCCCC3)cc2)CC1,13.3,–,–
Cc1ccc(-c2nc3ccccc3[nH]2)cc1NC(=O)c1ccco1,10.6,"65.1 nM [rising, full curve, poor fit]","65.1 nM [rising, full curve, poor fit]"
CN(C)S(=O)(=O)c1ccc(C(=O)OCCn2cnc3c2c(=O)n(C)c(=O)n3C)cc1,6.87,–,"731 nM [falling, single point]"
Cc1ccccc1Nc1nc(NCc2ccco2)c2ccccc2n1,-55.1,"20600 nM [falling, partial curve]","20600 nM [falling, partial curve]"
CCCCN(C)CCCNC(=O)c1cccc(N2CCCC2=O)c1,-115,"20600 nM [falling, single point]",–
COc1ccc(OCc2nnc(SCC(=O)NCc3ccco3)o2)cc1,1.43,–,"6510 nM [rising, full curve]"
CC1(c2ccccc2Cl)NC(=O)N(CC(=O)N2CCc3ccccc3C2)C1=O (stereo unspecified),-7.47,–,"5.17 nM [falling, full curve, poor fit]"
CCn1nc(C)c(/C=C/C(=O)Nc2ccc(C)cc2C)c1C,13.5,"1840 nM [rising, single point]","2310 nM [rising, full curve]"
O=C(NCC1CCN(C(=O)c2ccc([N+](=O)[O-])cc2)CC1)c1ccc([N+](=O)[O-])cc1,28.2,–,–

Compound,cell number change [%],AC50 [1],AC50 [2]
COC(=O)C1C(=O)C(C(=O)c2ccccc2)C(=O)CC1(C)C (stereo unspecified),8.92,–,"29100 nM [rising, single point]"
Cc1ccc[n+](CC(=O)Nc2ccc([N+](=O)[O-])cc2Cl)c1,–,"4.61 nM [falling, full curve, poor fit]",–
CCOC(=O)c1sc(=NC(=O)c2cccc(Br)c2)n(C)c1C,-0.236,–,"29100 nM [rising, single point]"
CC(C)C(=O)Nc1ccc2c(c1)nc(CCN1CCN(C)CC1)n2C,-2.72,–,"18400 nM [falling, partial curve, poor fit]"
CCc1ccccc1NC(=O)COc1ccc(C(=S)N2CCCC2)cc1,–,–,"580 nM [falling, single point]"
COc1ccc(CN2CC(=O)N(c3ccc(C)cc3)C2=S)cc1OC,6.89,–,"517 nM [rising, partial curve]"
O=S(=O)(c1ccc(Cl)cc1)c1ccccn1,3.4,–,"5.17 nM [rising, full curve, poor fit]"
Cc1cc(C(=O)N(C)Cc2ccc(Br)cc2)no1,95.7,"20600 nM [rising, partial curve]","25900 nM [rising, partial curve]"
O=C(O)c1ccc(F)c(S(=O)(=O)Nc2ccccc2Cl)c1,-0.472,–,"5170 nM [rising, partial curve]"
Cc1ccc(NC2Nc3cc(C)nn3S2)c(C)c1 (stereo unspecified),11.9,–,"4110 nM [rising, single point]"
Cc1ccc(C)c(SCC(=O)OCC(=O)Nc2ccc(S(=O)(=O)N3CCOCC3)cc2)c1,-6.4,–,–
O=C(Cn1nc(-c2ccccc2)c2ccccc2c1=O)Nc1cccnc1,0.482,"651 nM [rising, single point]","1840 nM [rising, partial curve]"
O=C(Nc1sc2c(c1C(=O)N1CCOCC1)CCCCC2)c1cccnc1,-1.38,–,"29100 nM [rising, single point]"
CCc1ccc(N2CC(C(=O)OCC(=O)c3c(N)n(CC(C)C)c(=O)n(C)c3=O)CC2=O)cc1 (stereo unspecified),14.5,–,–
N#Cc1ccc(NC(=O)CSc2n[nH]c(=O)n2C2CC2)cc1,14.7,"103 nM [falling, full curve, poor fit]","164 nM [falling, full curve, poor fit]"
O=C(NNC(=O)c1ccc(-n2cncn2)c([N+](=O)[O-])c1)c1ccc(Cl)cc1,-31.4,"9200 nM [falling, partial curve, poor fit]",–
Cc1ccccc1OCCOCCN1CCCCCC1,-26.9,–,"130 nM [rising, full curve, poor fit]"
Cc1ccc(S(=O)(=O)Nc2ccc(NC(=O)/C=C/C(=O)O)cc2)cc1,-9.23,–,–
CCOc1ccc2nc(NC(=O)Cn3cnc4c3c(=O)n(C)c(=O)n4C)sc2c1,-12.8,–,–
O=C(Nc1cc(C(F)(F)F)ccc1N1CCOCC1)c1ccc[n+]([O-])c1,-33.6,"2590 nM [falling, full curve]",–

Compound,cell number change [%],AC50 [1],AC50 [2]
O=C(NCC(=O)N(c1ccccc1)C(C(=O)NCC1CCCO1)c1ccccc1)c1cccs1 (stereo unspecified),8.26,–,"6510 nM [rising, single point]"
C/C(N)=C(/C#N)C(=O)COC(=O)c1ccc(C#N)cc1,39.5,–,"73.1 nM [falling, full curve, poor fit]"
O=C1CC(c2ccc(S(=O)(=O)NCc3ccncc3)cc2)CN1 (stereo unspecified),–,–,"116 nM [falling, full curve, poor fit]"
NC(=O)CN1CCCN(S(=O)(=O)c2ccc(Br)cc2)CC1,156,–,"731 nM [falling, single point]"
CCC(C)Nc1ccc(NC(C)CC)cc1 (stereo unspecified),8.47,"4.61 nM [falling, full curve, poor fit]","4.61 nM [falling, full curve, poor fit]"
Cc1noc(-c2ccccc2)c1NC(=O)Nc1ccccc1,-17.1,–,–
COc1ccccc1-c1cc(C(=O)N/N=C/c2sccc2C)c2ccccc2n1,-21.1,–,"206 nM [falling, full curve, poor fit]"
O=C(C1CC(=O)N(c2ccc(F)cc2)C1)N1CCN(c2ccccc2)CC1 (stereo unspecified),10.7,–,–
COC(=O)C1=CN(C)C=C(C(=O)OC)C1c1ccccc1Cl,-57.6,"2060 nM [falling, full curve]","1640 nM [falling, full curve]"
Cc1csc(-c2cnn(-c3ccccc3)c2NC(=O)c2cccc(F)c2)n1,91.2,"5800 nM [rising, partial curve]","820 nM [rising, single point]"
CC(C)[C@@H](C(=O)NCC1CCCO1)N1C(=O)N2CCc3c([nH]c4ccccc34)[C@@]2(C)C1=O (stereo partly specified),25.2,–,"29100 nM [rising, single point]"
Nc1ccc(-c2c3ccccc3nc3ccccc23)cc1,13.6,–,"1840 nM [rising, partial curve]"
O=C(Cn1c(/C=C/c2ccccc2)nc2ccccc21)Nc1ccc(F)cc1,0.29,–,"206 nM [rising, full curve, poor fit]"
O=C(O)[C@@H]1CCCN1C(=O)c1ccccc1N1C(=O)[C@@H]2Cc3c([nH]c4ccccc34)C(c3cccc(Cl)c3)N2C1=O (stereo partly specified),-1.69,–,–
Cc1nnc(SCC(=O)NC(C)c2ccccc2)[nH]c1=O (stereo unspecified),-1.29,–,"4610 nM [falling, partial curve]"
CCN(c1ccccc1)S(=O)(=O)c1ccc(Cl)c(C(=O)NCCc2ccc(OC)cc2)c1,-64,"6510 nM [falling, partial curve, poor fit]",–
Cc1ccc(Oc2ncnc(N)c2[N+](=O)[O-])cc1C,-16.9,–,"2310 nM [falling, full curve]"
c1ccc(CN2CCN(c3nc(NCc4ccco4)c4ccccc4n3)CC2)cc1,-88.7,–,–
CCc1ccc(-c2cc(C)no2)cc1S(=O)(=O)N1CCN(c2cc(C)ccc2C)CC1,142,–,"29100 nM [falling, single point]"

# 4 compounds from above, ordered by formula weight, ascending:
Compound,cell number change [%],AC50 [1],AC50 [2]
O=C1CSC(=S)N1/N=C/c1cccnc1,6.4,"2590 nM [rising, single point]","6510 nM [rising, single point]"
O=C(Nc1cc(C(F)(F)F)ccc1N1CCOCC1)c1ccc[n+]([O-])c1,-33.6,"2590 nM [falling, full curve]",–
CCOC(=O)c1sc(=NC(=O)c2cccc(Br)c2)n(C)c1C,-0.236,–,"29100 nM [rising, single point]"
O=C(NCC1CCN(C(=O)c2ccc([N+](=O)[O-])cc2)CC1)c1ccc([N+](=O)[O-])cc1,28.2,–,–
